# Results: US11731962B2, “LpxC inhibitor and methods of making” (priority 2020, dated 2023)
# At least one compound was matched to its structure with a doubt left.
# Test system: gram-negative and gram-positive bacterial strains
# Experiment: Bacterial susceptibility testing, whole panel
# Type: cell-based
# Settings: summary of Table 1
# Method: Minimal inhibitory concentrations (MIC) against a variety of gram-negative and gram-positive bacterial strains were determined by the broth microdilution method in accordance with the Clinical and Laboratory Standards Institute (CLSI) guidelines. In brief, organism suspensions were adjusted to a 0.5 McFarland standard to yield a final inoculum between 3×10^5 and 7×10^5 colony-forming units (CFU)/mL. Drug dilutions and inocula were made in sterile, cation adjusted Mueller-Hinton Broth (Beckton Dickinson). An inoculum volume of 100 μL was added to wells containing 100 μL of broth with 2-fold serial dilutions of drug. All inoculated microdilution trays were incubated in ambient air at 35° C. for 18-24 h. Following incubation, the lowest concentration of the drug that prevented visible growth (OD600 nm<0.05) was recorded as the MIC. Performance of the assay was monitored by the use of laboratory quality-control strains and levofloxacin, a compound with a defined MIC spectrum, in accordance with CLSI guidelines.
smiles,measurement,value
C[C@H]1COc2c(N3CCN(C)CC3)c(F)cc3c(=O)c(C(=O)O)cn1c23 [Levofloxacin],activity against gram-positive bacteria,do have activity against various strains of gram-positive bacteria
